According to patent US20050238685A1, “Method of binding a compound to a surface” (priority 2002, published 2005):

Assay: Immobilization of BSA, fibronectin or RPMI-medium proteins on bare and hydrophobin-coated TEFLON, TFA extraction and SDS-PAGE

## fibronectin
SC3 or trSC3 coated TEFLON
  immobilization on coated TEFLON: can be immobilized
Bare TEFLON
  immobilization on bare TEFLON: not immobilized
